# Experimental data as given in PubChem BioAssay AID1347426 (Functional Genomics Laboratory (NCATS/FGL), 2020).
# The whole screen tested about 31,000 sequences, of which about 1,400 (4.5%) were called active.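 The calls were made as follows: active = median seed-adjusted z-score above 1 or below -1; inactive = the rest.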 This is one part of the list.
# Assay: Novel Modifiers of Survival Motor Neuron (SMN) Protein: Gene Identification via Genome-wide siRNA Screen;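 also: luminescence tracks full-length SMN protein made from the SMN2 reporter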
# Conditions: HEK293T SMN2-luciferase reporter, siRNA knockdown, 72 h; actives lie on both sides
# Outline: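 Steps: spot 1 pmol siRNA, add Lipofectamine RNAiMax in serum-free DMEM, seed HEK293T SMN2–luciferase reporter cells; incubate 72 h at 37 °C; add ONE-Glo; normalize luminescence to control siRNA, log10, MAD. Candidates: |MAD| > 1.0.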
row,Sequence,median seed-adjusted z-score
1,GCAGAUUACUCAACAAGAATT against LMAN1,inactive: -0.118
2,GUACGGAUUUUGGAUAGUATT against TRPM7,inactive: -0.575
3,GGAAAUCCAUUCAAUCUGATT against GLYAT,inactive: 0.68
4,CGUCGAAGCCUUGCCGAAATT against LMX1B,inactive: 0.125
5,GGAGUUGAAGGCCUACAAATT against APOE,inactive: 0.0321
6,CCUGCUACGUGGACAAGAATT against ALDH3A1,inactive: -0.486
7,AGUGAAGGUUUGAAGAGUATT against APH1B,inactive: -0.135
8,GGGUUUUCAUCCCAAUUUATT against SLC5A3,inactive: -0.0305
9,GAGUCACUCUAUGACUUUUTT against LMBR1L,inactive: 0.349
10,CCAUGUGGGCUAUUGGAUATT against ZDHHC13,inactive: -0.381
11,GCAAGAGAGUCUCAAAUUUTT against EVX1,active: 1
12,GGGCUUCAAUGACGACCGATT against CPSF3L,inactive: -0.385
13,CGUCCUUCUGAGCUCAAAATT against ZNF711,inactive: 0.254
14,GGAGGAUUCUUAAUAUCCATT against NPEPPS,inactive: 0
15,ACCAGAUCUCCUUCGCUGATT against GSTP1,inactive: -0.61
16,ACAGUGCUCUUCCUUCAAATT against ZNF3,inactive: -0.149
17,GGAGCUCACUCAGAUCUAUTT against APOL3,inactive: -0.0761
18,GAAAUGACCUGAACGAAGATT against NTN4,inactive: 0.462
19,CAUUGUAUAUGGGACACUATT against STARD5,inactive: -0.0333
20,GGCAUAUAGUUGAAUUACUTT against GPAM,inactive: 0.237
21,CCACUGUAUUUUGCUCCAATT against NQO1,inactive: 0
22,GCUCCAUGCUUCACGAAAATT against SLC37A3,inactive: 0.246

row,Sequence,median seed-adjusted z-score
1,GAGUGAGACUGGGACAAGATT against TAPBP,inactive: -0.786
2,CAUCUACAAUGCGGAUUUATT against CSF2RA,inactive: -0.227
3,CCCAAAAGGUUACAUCGCATT against NMNAT3,inactive: 0.0197
4,CGCUCUCUUCACUUACGAATT against MYO10,inactive: 0.8
5,CAAGAUAUAUCACCUCGUATT against LOC442229,inactive: 0.183
6,GCCGUAUUUUGAUCAAGGUTT against BCAS2,inactive: -0.639
7,GGAACACUUUAAGUACGUATT against AKAP8L,inactive: -0.334
8,GGUUAUGCACAUUCGGAAATT against MAN1A2,inactive: 0.554
9,GAAGCGGUAUGUUCCAGUATT against EXOSC3,inactive: 0.569
10,GAAUAUCGCUUUGAUGGAUTT against GBE1,inactive: 0
11,GGAUUCAUCCGGUCCAGAUTT against PEX5L,inactive: 0.0982
12,CAUUGGUGCUAGUAUCCUUTT against ACCN1,inactive: -0.325
13,GAUUGUCUCUUUAGUGGAATT against TGDS,inactive: -0.196
14,GGCUAAAUCAGAACUCGAATT against UNG,inactive: 0.259
15,GGAAAUGCUGGUAAAGUAATT against PLAGL1,inactive: 0.0885
16,GCAUUUCAUGGUGAACAAATT against ZNF134,inactive: -0.0978
17,GUAUGUCUGUGAUAAGUUUTT against DPF1,inactive: 0.144
18,GGACAUCACUGGAGAGGAATT against RNPEP,inactive: -0.236
19,GGAGGUCUCUUGAACCGAUTT against MARS2,inactive: -0.00523
20,CUUCUGUUCGCUGCAAAAUTT against FOXD4L2,inactive: -0.118
21,CAAUAAAAGCCUUUCGUUUTT against CLDN3,inactive: -0.0833
22,CAUCCAACCUUCUUCCACATT against PCCB,inactive: 0.137

row,Sequence,median seed-adjusted z-score
1,GGAAAUCAUUGACUAGCAUTT against MTA3,inactive: 0.342
2,GGUGUAUUCUUUCUCGAUATT against UBE2E1,inactive: 0.888
3,GAACAGGAGCAACUACUAATT against GBP1,inactive: -0.232
4,CUACAGAUGCUACAGCUCATT against LILRA2,inactive: -0.103
5,GCAGUUCUGAUCAACAAUATT against LARS2,inactive: 0.25
6,GAGUCUACCCAACAGCUUATT against AGT,inactive: -0.121
7,CCACGUGAUAAAUCAAGAATT against PRPF4B,active: -2.29
8,CAUGGAGCACUAUAACCAATT against CACNA1H,inactive: -0.147
9,GAGCUCUCCCGAGAAGAUGTT against FOXB1,inactive: 0.223
10,GAAAUAAGGUUUUUGCAAATT against CCL25,inactive: 0.0698
11,CUAUAACUGUUCGUGCUUATT against USP47,inactive: 0.3
12,GGAGCUGAACCGCUACUACTT against PYY,inactive: 0.437
13,UGGAGUUGAUCGUUACUAUTT against NDUFA1,inactive: 0.182
14,GAUUACUCUUUGGAUAUAATT against TC2N,inactive: 0.461
15,GAGAAUAUCUGUUCUUUAATT against MMP10,inactive: 0.902
16,CAGUCACCACUAUCUCUGATT against LRRC4,inactive: 0.255
17,CAGACGAGAGUGAAACUGATT against JARID1C,inactive: 0.372
18,CCAGCUUGCUUGUGUAUAATT against PPP1R14A,inactive: 0.0124
19,UGAUUUGUUUCAUUGUUAATT against NFKBIB,inactive: 0.00673
20,ACUCCAACCGUACCCUUUATT against PPT2,inactive: 0.0334
21,GGCCUUAUAUGACCACCUATT against C1QBP,inactive: 0.754
22,CAGCGAAGCUUGGAAGCCATT against GPN2,inactive: 0

row,Sequence,median seed-adjusted z-score
1,GGUCCACAAUGUAUGGUUUTT against HSPB2,inactive: 0.247
2,ACAUCCGAGUUUAUCCUGATT against SFRS9,inactive: -0.144
3,GAAAAUUCAACGAACCAAATT against ACSM2B,inactive: -0.0401
4,GCUCCUACCUGGUAGACGATT against KCNJ9,inactive: -0.0832
5,GGCCCUAACUCACAACCAATT against MAGI1,inactive: 0
6,GAACAGCACCUUGUAUUCUTT against CREBL1,inactive: -0.348
7,CUUGGAAGCUCUUACGUGATT against RARRES1,inactive: -0.329
8,CCCUGUUAUUAGCAGCCCATT against GCKR,inactive: 0.454
9,ACAAGGAGGUGUCUACCAATT against KRT13,inactive: 0.101
10,GCAACACCAUGUCCUUGUUTT against GRHPR,inactive: 0.475
11,AGCCCAACAAGCUUCGAAATT against GRB7,inactive: 0.439
12,GCUAAUCCUCGAUACAAGATT against CASP7,inactive: 0.213
13,CGAUUCGAGAAAUCAUUAATT against TFB1M,inactive: 0.172
14,GAAAUUCCAUGUCAUUGUATT against EIF2B2,inactive: -0.325
15,GCAGAGAAAAUAUAACUGATT against NPHP1,inactive: -0.0667
16,GGACGAGAUUUCUAUAAGATT against DNAJB11,inactive: -0.0495
17,GAAUAUAUCUAAAUCGCAUTT against RORA,inactive: -0.144
18,CUAUGGUAAUGAUCGAUUUTT against GRIK2,inactive: 0.00242
19,GACUUUACUCUGACUAUAATT against MCOLN3,inactive: -0.09
20,GAACUGUCCGAAUCUAAUUTT against CNTNAP1,inactive: 0.176
21,GCUGAUCGCAUGUUGGAUATT against DDX4,inactive: -0.136
22,CACCGACCCUGAGAACUUATT against MAN1B1,inactive: -0.88

row,Sequence,median seed-adjusted z-score
1,CACCUCCGAUAAGCCCUAUTT against ZIC2,inactive: -0.162
2,CAUCAUUUCAGACAAGUUUTT against DDO,inactive: -0.202
3,CAGGCAUCGUGAAGGCCUATT against AIPL1,inactive: -0.259
4,GGAUCUACUCGGCACUCUATT against ZBTB20,inactive: -0.521
5,CCGGAAUUUUUGACAAGAATT against PTGS2,inactive: -0.21
6,GUGUCUCAGGGAUAGGUAATT against MICAL2,inactive: -0.0224
7,GGAUUUACUGGGCAAACUATT against ZMYND12,inactive: 0.0551
8,ACAGUGCCUCUUAUUCUGATT against HIC2,inactive: -0.283
9,GUCCCAACAUGUAAACGAATT against MYO1B,inactive: 0.903
10,CGACUUGCUAAGCUACAUATT against MAOA,inactive: 0.665
11,CGAUUAGAGUCUACACCGATT against MLL,inactive: 0.227
12,GGUCAUGGUUUGUUGAGCATT against HOXB13,inactive: -0.136
13,AGAGCAAAGUUUAUAACAATT against TRIM36,inactive: -0.262
14,GCUCCUUACCCAUACUUCATT against ANGEL2,inactive: -0.59
15,GCAUCUAAUACUUAUGGAATT against MS4A4A,inactive: 0.296
16,GGAGCUAGCUGCUGUGAGATT against MECR,inactive: 0.0339
17,AGAUGACACUGAACAUGAATT against LASP1,inactive: -0.286
18,CUACUACCGUAAGGACAAATT against NLGN3,inactive: -0.0279
19,CCAAGCUCGUCUACCAGAATT against GNA11,inactive: -0.11

# 5 entries drawn at random from those above, as already listed:
row,Sequence,median seed-adjusted z-score
4,GGAUCUACUCGGCACUCUATT against ZBTB20,inactive: -0.521
7,GGAUUUACUGGGCAAACUATT against ZMYND12,inactive: 0.0551
12,GGUCAUGGUUUGUUGAGCATT against HOXB13,inactive: -0.136
18,CUACUACCGUAAGGACAAATT against NLGN3,inactive: -0.0279
17,AGAUGACACUGAACAUGAATT against LASP1,inactive: -0.286
